In PubChem BioAssay AID1347075 (National Center for Advancing Translational Sciences (NCATS), 2019):
Out of some 400,000 compounds screened, about 5,500 (1.4%) were called active. This list was built around the results that the source calls inconclusive (neither active nor inactive); the mix of calls is not that of the screen. The call rests on the fitted dose curve; in most records, active means well fitted cell-killing curve with a large enough effect; inconclusive means small, poorly fitted or top-dose-only effect, or effect the other way; inactive means flat fitted curve, though single readings scatter. A potency beside an inconclusive call is a rough fit, not a confirmed value.

Experiment: qHTS assay for MDR1-selective chemotherapeutics: Primary screen using the parental adenocarcinoma cell KB-3-1; further: nearly all actives have a fitted effect of over 60% in size
Details: KB-3-1 viability, CellTiter-Glo ATP luminescence, 72 h; activity change, negative = cytotoxic: at 46.1 µM (top of the series)
Procedure, shortened: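 Multi-concentration cytotoxicity screen in KB-3-1 cells grown in DMEM lacking phenol red with 10% FBS. After 72 h at 37 °C with compound, ATP-dependent luminescence was recorded.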
On the % scale 0 is the no-effect control and ±100 the full control effect; potency means the concentration at half of the fitted maximal effect.

Row | Compound | Potency | activity change, negative = cytotoxic
1 | COC(=O)[C@@]12C[C@@H](CC(=O)NCC34CC5CC(CC(C5)C3)C4)C(=O)N(Cc3cccc4ccccc34)C1=CCC(C)(C)C2 | inconclusive: 29.1 µM [cytotoxic, single point] | –
2 | CC(=O)Nc1cccc(-c2ccnc3c2CC(C)(C(=O)NCCC(F)(F)F)O3)c1 (stereo unspecified) | inconclusive: 2.59 µM [cytotoxic, partial curve, poor fit] | –
3 | O=C1c2ccccc2S(=O)(=O)c2cc(N3CCN(c4ccccn4)CC3)ccc21 | inconclusive: 23.1 µM [rising, single point] | –
4 | CCC(CC)C1=NN2C(=N)/C(=C\c3cc(C)n(-c4cccc(C)c4)c3C)C(=O)N=C2S1 | – | inactive: 9.67%
5 | CCN(CC1COc2ccccc2O1)C(=O)c1ccc(Cl)c(S(=O)(=O)N2CC(C)OC(C)C2)c1 (stereo unspecified) | – | inactive: -24.2%
6 | Cc1ccc(S(=O)(=O)c2cnc(SCC(=O)Nc3cccc(Cl)c3)nc2N)cc1C | – | inactive: 15.8%
7 | COc1cccc(Sc2ccccc2/C=N/NC(N)=O)c1 | active: 2.91 µM | –
8 | CCC(Oc1ccccc1OC)C(=O)N1CC(=O)Nc2ccccc21 (stereo unspecified) | – | inconclusive: -5.59%
9 | COc1ccc(C(=O)O/N=C(\N)c2ccccc2)cc1OC | inconclusive: 20.6 µM [cytotoxic, single point] | –
10 | O=C(c1ccc2c3n(nc2c1)-c1ccccc1CO3)N1CCCCC1 | active: 9.2 µM | –
11 | Cc1occc1C(=O)N1CCN(C(c2ccccc2)c2ccccc2)CC1 | inconclusive: 12.6 µM [cytotoxic, partial curve] | –
12 | COc1ccc(C(CC(=O)O)NC(=O)c2cc3ccccc3oc2=O)cc1OC (stereo unspecified) | – | inactive: 14.4%
13 | Cc1ccc(NC(=O)CSc2n[nH]c(C)c2[N+](=O)[O-])cc1C | inconclusive: 18.4 µM [rising, partial curve, poor fit] | –
14 | COc1ccc(NC(=O)c2nc[nH]c2C(=O)N[C@@H](CC(C)C)C(=O)OC(C)(C)C)cc1 | inconclusive: 29.1 µM [cytotoxic, single point] | –
15 | Cc1ccc(/C=N/NC(=O)NC23CC4CC(CC(C4)C2)C3)o1 | – | inactive: -4.68%
16 | C=CCSc1nccc(=O)[nH]1 | – | inactive: 9.46%
17 | CCCC(C)NCC(=O)Nc1ccccc1-c1ccccc1 (stereo unspecified) | – | inactive: 0.487%
18 | Cc1ccc(C2c3c(-c4cc(C)ccc4O)n[nH]c3C(=O)N2Cc2ccco2)cc1 (stereo unspecified) | – | inactive: 4.49%

Row | Compound | Potency | activity change, negative = cytotoxic
19 | O=C(NCCCCNC(=O)c1ccc(Cl)s1)c1ccc(Cl)s1 | – | inactive: 2.64%
20 | Cc1ccc2c(c1)C(=O)C(=O)N2Cc1ccc(F)cc1 | inconclusive: 29.1 µM [cytotoxic, single point] | –
21 | Cc1csc(SCC(=O)Nc2sc3c(c2C#N)CCC3)n1 | inconclusive: 29.1 µM [cytotoxic, single point] | –
22 | CN(CCn1ccnc1)Cc1cn(Cc2ccccc2)nc1-c1ccc2c(c1)OCO2 | – | inactive: -8.68%
23 | O=C1C=C(N2CCCCC2)c2ccccc2C1=O | active: 11.6 µM | –
24 | CC1(C)NC(=O)N(CCCCOc2cccc(C(F)(F)F)c2)C1=O | inconclusive: 25.9 µM [cytotoxic, single point] | –
25 | NC(=O)C1CCN(c2ccc3c(c2)S(=O)(=O)c2ccccc2C3=O)CC1 | – | inactive: -14.4%
26 | CC(C(=O)NCc1ccccc1Cl)n1ccc2cc(S(=O)(=O)N3CCCCC3)ccc21 (stereo unspecified) | – | inactive: -26.9%
27 | COc1cc(OC)cc(-c2cc3ccc(F)cc3cn2)c1 | inconclusive: 20.6 µM [cytotoxic, single point] | –
28 | CCOC(=O)c1cc(C)nnc1C(=O)OCC | inconclusive: 2.31 µM [cytotoxic, partial curve, poor fit] | –
29 | Cc1cc(Cl)ccc1OCC(=O)NNC(=O)c1cccnc1 | – | inactive: 0.18%
30 | c1nc(N2CCC3(CC2)OCCO3)c2c3c(sc2n1)CCCC3 | – | inactive: -20.2%
31 | CCOC(=O)CSc1c(-c2cccs2)[nH]c2ccccc12 | inconclusive: 29.1 µM [cytotoxic, single point] | –
32 | Cc1[nH]nc2ncc(C(=O)c3ccccc3O)cc12 | – | inactive: -23.5%
33 | CCCCCCCNC1=CC(=O)CC(c2ccccc2)C1 (stereo unspecified) | active: 7.31 µM | –
34 | CCOC(=O)C1=NN(c2ccccc2)C(=O)/C1=C\c1ccc(N(C)C)cc1 | inconclusive: 29.1 µM [cytotoxic, single point] | –
35 | CCCCNC(=O)NC1(C(F)(F)F)Oc2ccccc2O1 | inconclusive: 29.1 µM [cytotoxic, single point] | –
36 | CCN1/C(=C/c2cc[n+](C)cc2)C=Cc2cc(C)ccc21 | active: 2.91 µM | –

Record cards, from the list above.
C=CCSc1nccc(=O)[nH]1 as listed: activity change, negative = cytotoxic: inactive: 9.46%
CCOC(=O)CSc1c(-c2cccs2)[nH]c2ccccc12 as listed: Potency: inconclusive: 29.1 µM [cytotoxic, single point]
CCOC(=O)C1=NN(c2ccccc2)C(=O)/C1=C\c1ccc(N(C)C)cc1 as listed: Potency: inconclusive: 29.1 µM [cytotoxic, single point]
